{
  "source": "patent US9896466B2",
  "about": "(Smart Brain S.R.O., priority 2013, dated 2018)",
  "experiment_in_all_cases": "cells",
  "key": {"[1]": {"system": "MDA-MB-436", "details": "Homo sapiens"}, "[2]": {"system": "LnCAP - prostate cancer", "details": "Homo sapiens"}, "[3]": {"system": "MOLT-4 - leukaemia", "details": "Homo sapiens"}, "[4]": {"system": "MCF7par", "details": "Homo sapiens"}, "[5]": {"system": "HCT116 - colorectal cancer", "details": "Homo sapiens, HCT-116"}, "[6]": {"system": "MCF7HER2−", "details": "Homo sapiens"}, "[7]": {"system": "U87 - glioblastoma"}, "[8]": {"system": "H1299 - non-small cell lung cancer", "details": "Homo sapiens, NCI-H1299"}, "[9]": {"system": "H28 - mesothelioma"}, "[10]": {"system": "SHSY5Y - neuroblastoma", "details": "Homo sapiens, SH-SY5Y"}, "[11]": {"system": "1321n1 - astrocytoma", "details": "Homo sapiens"}, "[12]": {"system": "T47D", "details": "Homo sapiens"}, "[13]": {"system": "MG-63 - osteosarcoma", "details": "Homo sapiens"}, "[14]": {"system": "HepG2 - hepatocarcinoma", "details": "Homo sapiens"}},
  "data": [
    {"compound": "CC/C(=C(\\c1ccccc1)c1ccc(OCCN(C)C)cc1)c1ccccc1", "note": "[TAX, tamoxifen]", "values": [
      {"measurement": "IC50", "setting": "[1]", "result": 12.6, "unit": "µM"},
      {"measurement": "IC50", "setting": "[2]", "result": 36.7, "unit": "µM"},
      {"measurement": "IC50", "setting": "[3]", "result": 12.9, "unit": "µM"},
      {"measurement": "IC50", "setting": "[4]", "result": 15.2, "unit": "µM"},
      {"measurement": "IC50", "setting": "[5]", "result": 28.9, "unit": "µM"},
      {"measurement": "IC50", "setting": "[6]", "result": 14.1, "unit": "µM"},
      {"measurement": "IC50", "setting": "[7]", "result": 32.4, "unit": "µM"},
      {"measurement": "IC50", "setting": "[8]", "result": 38.5, "unit": "µM"},
      {"measurement": "IC50", "setting": "[9]", "result": 39.7, "unit": "µM"},
      {"measurement": "IC50", "setting": "[10]", "result": 11.2, "unit": "µM"},
      {"measurement": "IC50", "setting": "[11]", "result": 18, "unit": "µM"},
      {"measurement": "IC50", "setting": "[12]", "result": 17.3, "unit": "µM"},
      {"measurement": "IC50", "setting": "[13]", "result": 19.9, "unit": "µM"},
      {"measurement": "IC50", "setting": "[14]", "result": 17.6, "unit": "µM"}
    ]}
  ]
}
